Source: the supplement of paper PMC7661543
± gives the standard deviation of the averaged measurements. Differences between knockout arms are mostly noise.

System: HCC-38
Assay: relative cell number vs DMSO control (72 h) (% of DMSO); higher = less growth inhibition (more cells)
Experimental: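 QMAP-Seq: a pool of 5 breast cancer cell lines (ZR-75-1, SKBR3, HCC-38, MDA-MB-231, BT-20), each carrying 12 doxycycline-inducible Cas9 sgRNA perturbations (11 knockouts plus non-targeting sgNT), was treated with compounds for 72 h at four 10-fold doses (10 nM-10 uM or 1 nM-1 uM range). Barcodes were amplified and sequenced, and cell number was interpolated from 293T spike-in standard curves. The result is expressed as % of the median of DMSO wells. Two biological replicates.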

Cc1ccc(C(=O)Cn2c3c(sc2=N)CCCC3)cc1 [PifithrinAlpha]
Conditions	relative cell number
sgRNA knockout: sgATF3, 10 nM	90.4 ± 3.8
sgRNA knockout: sgATF3, 100 nM	104 ± 4.9
sgRNA knockout: sgATF3, 1000 nM	88.8 ± 9.2
sgRNA knockout: sgATF3, 10000 nM	92.9 ± 6.5
sgRNA knockout: sgATF4, 10 nM	80 ± 7.1
sgRNA knockout: sgATF4, 100 nM	97.7 ± 2.3
sgRNA knockout: sgATF4, 1000 nM	82.8 ± 1.1
sgRNA knockout: sgATF4, 10000 nM	91.8 ± 6.1
sgRNA knockout: sgATF6, 10 nM	112 ± 17
sgRNA knockout: sgATF6, 100 nM	96.8 ± 6.2
sgRNA knockout: sgATF6, 1000 nM	92.2 ± 20
sgRNA knockout: sgATF6, 10000 nM	98.7 ± 18
sgRNA knockout: sgATG7, 10 nM	81.5 ± 5.2
sgRNA knockout: sgATG7, 100 nM	97.9 ± 1.9
sgRNA knockout: sgATG7, 1000 nM	82.08 ± 0.15
sgRNA knockout: sgATG7, 10000 nM	80.8 ± 3.2
sgRNA knockout: sgERN1, 10 nM	94.5 ± 16
sgRNA knockout: sgERN1, 100 nM	99.5 ± 1.4
sgRNA knockout: sgERN1, 1000 nM	82.6 ± 0.61
sgRNA knockout: sgERN1, 10000 nM	84.6 ± 5.9
sgRNA knockout: sgHSF1, 10 nM	107 ± 5.8
sgRNA knockout: sgHSF1, 100 nM	92.07 ± 0.91
sgRNA knockout: sgHSF1, 1000 nM	95.4 ± 8.7
sgRNA knockout: sgHSF1, 10000 nM	83.4 ± 12
sgRNA knockout: sgHSF2, 10 nM	97.8 ± 14
sgRNA knockout: sgHSF2, 100 nM	105 ± 11
sgRNA knockout: sgHSF2, 1000 nM	89 ± 14
sgRNA knockout: sgHSF2, 10000 nM	94.9 ± 16
sgRNA knockout: sgKEAP1, 10 nM	106 ± 14
sgRNA knockout: sgKEAP1, 100 nM	101 ± 22
sgRNA knockout: sgKEAP1, 1000 nM	101 ± 12
sgRNA knockout: sgKEAP1, 10000 nM	71.5 ± 17
sgRNA knockout: sgNFE2L2, 10 nM	78 ± 15
sgRNA knockout: sgNFE2L2, 100 nM	102 ± 16
sgRNA knockout: sgNFE2L2, 1000 nM	81 ± 5
sgRNA knockout: sgNFE2L2, 10000 nM	85.7 ± 3.6
sgRNA knockout: sgSLC35F2, 10 nM	85.6 ± 16
sgRNA knockout: sgSLC35F2, 100 nM	103.5 ± 0.21
sgRNA knockout: sgSLC35F2, 1000 nM	85.9 ± 7.5
sgRNA knockout: sgSLC35F2, 10000 nM	89.7 ± 6.3
sgRNA knockout: sgXBP1, 10 nM	85.3 ± 9
sgRNA knockout: sgXBP1, 100 nM	98 ± 3.5
sgRNA knockout: sgXBP1, 1000 nM	83 ± 2.9
sgRNA knockout: sgXBP1, 10000 nM	92.9 ± 9.9

COc1cc(OC)c(/C=C/S(=O)(=O)Cc2ccc(OC)c(NCC(=O)O)c2)c(OC)c1 [Rigosertib]
Conditions	relative cell number
sgRNA knockout: sgATF3, 10 nM	90 ± 16
sgRNA knockout: sgATF3, 100 nM	41.2 ± 5.8
sgRNA knockout: sgATF3, 1000 nM	27 ± 3
sgRNA knockout: sgATF3, 10000 nM	24.053 ± 0.022
sgRNA knockout: sgATF4, 10 nM	99 ± 5.1
sgRNA knockout: sgATF4, 100 nM	46.4 ± 1.7
sgRNA knockout: sgATF4, 1000 nM	23.4 ± 3.4
sgRNA knockout: sgATF4, 10000 nM	20.3 ± 1.4
sgRNA knockout: sgATF6, 10 nM	88.28 ± 0.2
sgRNA knockout: sgATF6, 100 nM	46.9 ± 2.5
sgRNA knockout: sgATF6, 1000 nM	25.8 ± 2
sgRNA knockout: sgATF6, 10000 nM	21.7 ± 2.2
sgRNA knockout: sgATG7, 10 nM	88.01 ± 0.84
sgRNA knockout: sgATG7, 100 nM	35.8 ± 1.6
sgRNA knockout: sgATG7, 1000 nM	28.3 ± 1
sgRNA knockout: sgATG7, 10000 nM	24.6 ± 1.9
sgRNA knockout: sgERN1, 10 nM	84.7 ± 16
sgRNA knockout: sgERN1, 100 nM	41.9 ± 1.4
sgRNA knockout: sgERN1, 1000 nM	26.5 ± 7.1
sgRNA knockout: sgERN1, 10000 nM	26.6 ± 3.7
sgRNA knockout: sgHSF1, 10 nM	101 ± 2.2
sgRNA knockout: sgHSF1, 100 nM	38 ± 18
sgRNA knockout: sgHSF1, 1000 nM	23.1 ± 2.2
sgRNA knockout: sgHSF1, 10000 nM	37.2 ± 0.91
sgRNA knockout: sgHSF2, 10 nM	95.3 ± 2.4
sgRNA knockout: sgHSF2, 100 nM	40.7 ± 4
sgRNA knockout: sgHSF2, 1000 nM	24.3 ± 1.1
sgRNA knockout: sgHSF2, 10000 nM	25.8 ± 7.5
sgRNA knockout: sgKEAP1, 10 nM	85.3 ± 27
sgRNA knockout: sgKEAP1, 100 nM	32.2 ± 7.6
sgRNA knockout: sgKEAP1, 1000 nM	29 ± 11
sgRNA knockout: sgKEAP1, 10000 nM	38.5 ± 1.9
sgRNA knockout: sgNFE2L2, 10 nM	96.2 ± 6.8
sgRNA knockout: sgNFE2L2, 100 nM	47 ± 2.9
sgRNA knockout: sgNFE2L2, 1000 nM	22.6 ± 4.7
sgRNA knockout: sgNFE2L2, 10000 nM	21.4 ± 1.2
sgRNA knockout: sgSLC35F2, 10 nM	89.1 ± 3.5
sgRNA knockout: sgSLC35F2, 100 nM	42.8 ± 6
sgRNA knockout: sgSLC35F2, 1000 nM	27.5 ± 0.6
sgRNA knockout: sgSLC35F2, 10000 nM	24 ± 2.9
sgRNA knockout: sgXBP1, 10 nM	88.6 ± 3.6
sgRNA knockout: sgXBP1, 100 nM	42.7 ± 1.2
sgRNA knockout: sgXBP1, 1000 nM	28.1 ± 7.8
sgRNA knockout: sgXBP1, 10000 nM	25.2 ± 3.6
